Reference: PMC8459589
Results are given in words; binding and its absence hold for the method and conditions named. In cells and extracts the contact can be indirect. Some results given as binding are weak or reduced against the parent protein; the word gives no strength. Tags and fused reporters may be left off the sequences shown.

Protein sequences, listed by entry. Tags and fused reporters are not part of them. Lines headed by an entry give the natural chain unless they say otherwise; changes in a name come on top.
UniProt P05556: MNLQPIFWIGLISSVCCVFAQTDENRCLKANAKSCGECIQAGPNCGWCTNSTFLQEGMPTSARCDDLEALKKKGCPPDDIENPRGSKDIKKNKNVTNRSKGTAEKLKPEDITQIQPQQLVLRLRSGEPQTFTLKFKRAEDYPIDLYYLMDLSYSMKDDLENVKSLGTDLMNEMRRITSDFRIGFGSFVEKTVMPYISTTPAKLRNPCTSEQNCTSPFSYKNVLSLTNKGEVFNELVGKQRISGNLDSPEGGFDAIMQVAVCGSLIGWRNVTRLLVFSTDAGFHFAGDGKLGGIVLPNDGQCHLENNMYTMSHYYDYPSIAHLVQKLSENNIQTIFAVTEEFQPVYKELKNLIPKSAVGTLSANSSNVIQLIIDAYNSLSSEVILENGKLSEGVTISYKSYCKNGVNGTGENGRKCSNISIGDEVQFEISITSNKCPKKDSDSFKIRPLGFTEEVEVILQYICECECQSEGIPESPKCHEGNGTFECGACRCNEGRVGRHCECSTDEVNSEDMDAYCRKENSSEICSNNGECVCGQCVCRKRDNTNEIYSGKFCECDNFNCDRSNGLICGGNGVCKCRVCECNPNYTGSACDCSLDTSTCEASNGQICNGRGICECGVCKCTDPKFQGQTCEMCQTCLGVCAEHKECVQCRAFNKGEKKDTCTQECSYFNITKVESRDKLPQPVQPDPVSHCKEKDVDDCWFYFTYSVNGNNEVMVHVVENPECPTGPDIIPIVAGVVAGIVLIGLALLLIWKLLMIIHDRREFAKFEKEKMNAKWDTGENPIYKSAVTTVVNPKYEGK
UniProt P06241: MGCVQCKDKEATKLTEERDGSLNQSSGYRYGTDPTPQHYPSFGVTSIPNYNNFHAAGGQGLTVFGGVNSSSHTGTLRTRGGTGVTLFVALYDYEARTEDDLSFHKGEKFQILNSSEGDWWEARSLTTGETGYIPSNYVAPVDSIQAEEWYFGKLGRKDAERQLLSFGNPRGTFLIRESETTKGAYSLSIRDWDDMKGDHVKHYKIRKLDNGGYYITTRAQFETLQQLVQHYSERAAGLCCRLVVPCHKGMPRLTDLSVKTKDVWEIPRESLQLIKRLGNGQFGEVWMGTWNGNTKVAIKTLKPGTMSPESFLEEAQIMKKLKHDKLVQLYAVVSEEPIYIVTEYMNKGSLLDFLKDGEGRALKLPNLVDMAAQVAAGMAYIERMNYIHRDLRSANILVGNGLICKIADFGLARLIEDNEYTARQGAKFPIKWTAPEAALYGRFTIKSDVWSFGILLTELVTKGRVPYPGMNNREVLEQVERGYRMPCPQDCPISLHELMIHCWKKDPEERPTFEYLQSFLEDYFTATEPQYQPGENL

Biological target: T1, His-tagged TYMP (thymidine phosphorylase), recombinant (UniProt P19971)
T1 sequence: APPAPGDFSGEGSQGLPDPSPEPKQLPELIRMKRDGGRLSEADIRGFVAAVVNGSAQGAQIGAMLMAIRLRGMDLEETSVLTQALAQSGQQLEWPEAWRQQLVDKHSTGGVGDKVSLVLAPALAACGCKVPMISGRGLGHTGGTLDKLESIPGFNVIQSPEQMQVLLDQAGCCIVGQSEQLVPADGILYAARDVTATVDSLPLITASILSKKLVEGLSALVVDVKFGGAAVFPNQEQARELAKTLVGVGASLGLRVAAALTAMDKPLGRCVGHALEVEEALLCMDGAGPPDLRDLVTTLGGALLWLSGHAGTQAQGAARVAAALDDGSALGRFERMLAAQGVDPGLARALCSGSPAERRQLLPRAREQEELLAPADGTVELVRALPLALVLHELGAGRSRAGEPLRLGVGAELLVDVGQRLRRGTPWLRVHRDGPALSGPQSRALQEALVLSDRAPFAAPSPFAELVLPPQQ
Assay: pull-down; 10 ug His-tagged TYMP bound to His60 Ni magnetic beads, incubated 2 h with 1 mL human monocyte lysate (250 ug protein, EzRIPA lysis buffer), washed 3 times with PBST, then SDS-PAGE and Western blot; negative controls were lysate and beads without TYMP; only the target purified

| binding | Substance |
| --- | --- |
| binds | Integrin beta-1 (from UniProt P05556 21-798) (receptor) |
| binds | tyrosine kinase FYN (from UniProt P06241 1-537) (enzyme) |
